These are yes or no findings as the source states them, for the method shown. A result given as binding can be weak or reduced; the word gives no strength.
B1: 8F5 antibody (murine CD33^V-set antibody) (antibody, V domains shown)
VH: EVKLVESGGGLVQPGGSLKLSCAASGFTFSDFYMYWVRQTPEKRLEWVAFISNAGVTTYYPDTVEGRFTISRDNAKNTLYLQMSRLMSEDTAMYYCTKSDYDGAWFPYWGQGTLVTVS
VL: DIVMSQSPSSLPVSVGEKVTLSCKSSQSLLYSRNQYNFLAWYQQRPGQSPKLLIYWASTRESGVPDRFTGSGSGTDFTLTISSVKAEDLAVYYCQQYYSYPYTFGGGTKLEIK
notes: Murine hybridoma antibody
B2: 5D12 antibody (murine CD33^V-set antibody) (antibody, V domains shown)
VH: QVQLQQSGAEVVKPGASVKISCRASGYAFSNYWMNWVKQRPGKGLEWIGQIYPGNFNTDYNGQFKGKATLTVDKSSNTAYMQLSSLTSEDSAVYFCARFFDFGAYFTLDYWGQGTSVTVSS
VL: DIKMTQSPSSIYASLGERVTINCKASQDIKSYLSWYQQKPWKSPKTLIYYATTLADGVPSRFSGSGSGQDYSLTISSLESDDTATYYCLHHGESPWTFGEGTKLEIK
notes: Murine hybridoma antibody

Molecular target: NHP CD33
Experiment: flow cytometry, murine antibody; ML-1 CD33 KO cells expressing non-human primate CD33, compared with ML-1 CD33 KO cells

Binder	binding
B1	binds
B2	binds

From patent US20230190810A1 (FRED HUTCHINSON CANCER CENTER, published 2023)
